PubChem BioAssay AID652272 – Drosophila RNAi Screening Center – 2013
The screen tested about 21,000 reagents; this is a random part of those with a known target gene and a result. In the full data, 503 (2.4%) are marked active. 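Raw plate light values, not normalised; calls rest on replicate z-scores that were not deposited; hits include reporter decreases as well as increases.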 A plus sign joins genes that one reagent is predicted to hit. Not stated in the record: the amount of reagent, the time to read-out.

Test: 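Finding fly genes that regulate Hedgehog signal transduction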 (primary screen)
Cell system: Drosophila clone 8 (Cl8) cells
Reagents: long dsRNA against Drosophila genes
Read-out: 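Plate reader light from a firefly reporter under a ptc promoter fragment that responds to Hedgehog, with Renilla light as transfection reference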
Scale: firefly Hh reporter signal: higher = more ptc reporter light; Renilla reference signal: higher = more Renilla control light
Call rule: 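Called a hit if the two-replicate mean z-score lies below -2 or above +3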
Meaning of the calls: active = hit: reporter lowered or raised; inactive = not a hit

| predicted target | DRSC id | firefly Hh reporter signal, replicate 1 | firefly Hh reporter signal, replicate 2 | firefly Hh reporter signal, replicate 3 | Renilla reference signal, replicate 1 | Renilla reference signal, replicate 2 | Call |
| --- | --- | --- | --- | --- | --- | --- | --- |
| Cog7 | DRSC16331 | 1.33e5 | 2.00e5 | – | 5184 | 6384 | inactive |
| AspRS-m | DRSC02646 | 76266 | 49941 | – | 2278 | 5269 | inactive |
| mRpL39 | DRSC10255 | 93200 | – | – | 1316 | 2352 | inactive |
| Vsx2 | DRSC17397 | 5.31e5 | 3.54e5 | 1.37e5 | 4224 | 23818 | inactive |
| Vsx2 | DRSC18087 | 29947 | 64864 | – | 1671 | 3872 | inactive |
| Vsx2 | DRSC18088 | 78387 | 4.35e5 | 2.35e5 | 3179 | 4179 | inactive |
| Vsx2 | DRSC18089 | 2.23e5 | 1.28e5 | 3.47e5 | 2578 | 4464 | active |
| AP-2alpha | DRSC00800 | 1.26e5 | 77188 | – | 2922 | 1655 | inactive |
| CG12985 | DRSC19505 | 79290 | 1.78e5 | – | 2480 | 7107 | inactive |
| CG34299 | DRSC13974 | 60296 | 2.89e5 | – | 13900 | 6412 | inactive |
| Muc68Ca | DRSC10312 | 4.62e5 | 65590 | – | 2295 | 2295 | inactive |
| Muc68Ca | DRSC10313 | 43971 | 40930 | 85025 | 4483 | 5932 | inactive |
| ocm | DRSC04360 | 38690 | 36698 | – | 1691 | 1360 | inactive |
| SLC5A11 | DRSC03088 | 55816 | 40042 | – | 2551 | 1677 | inactive |
| slo | DRSC13685 | 43296 | 3.97e5 | – | 17300 | 9690 | inactive |
| slo | DRSC17057 | 89892 | 97494 | – | 3361 | 3671 | inactive |
| sqa | DRSC06693 | 46620 | 53476 | – | 2177 | 2219 | inactive |
| CG8958 | DRSC20134 | 63824 | 1.48e5 | – | 1440 | 6641 | inactive |
| CG1441 | DRSC06448 | 1.16e5 | 73588 | – | 4550 | 2653 | inactive |
| Fhos | DRSC08943 | 82794 | 1.93e5 | – | 2138 | 7040 | inactive |
| Fhos | DRSC10545 | 1.27e5 | 74092 | – | 5184 | 3139 | inactive |
| Fhos | DRSC10546 | 1.56e5 | 99474 | – | 6173 | 4008 | inactive |
| Fhos | DRSC10547 | 65860 | 79043 | – | 5941 | 6737 | inactive |
| mmd | DRSC19672 | 60738 | 93522 | – | 1632 | 5114 | inactive |
| mmd | DRSC19673 | 55771 | 1.49e5 | – | 1488 | 6632 | inactive |
| mmd | DRSC20161 | 64672 | 1.78e5 | – | 2321 | 7664 | inactive |
| CG6310 | DRSC10619 | 38086 | 47517 | 78728 | 4573 | 5568 | inactive |
| Ada3 | DRSC20321 | 89460 | 2.91e5 | – | 2096 | 11696 | inactive |
| Ada3 | DRSC20322 | 79414 | 1.87e5 | – | 1413 | 7760 | inactive |
| CG10750 | DRSC02105 | 84112 | 50464 | – | 4013 | 2560 | inactive |
| CG15594 | DRSC12280 | 1.08e5 | 1.21e5 | – | 4001 | 3488 | inactive |
| Nmd3 | DRSC18687 | 1.53e5 | 1.01e5 | – | 3536 | 3515 | inactive |
| CG4332 | DRSC19890 | 93505 | 57588 | – | 2867 | 1517 | inactive |
| psidin | DRSC15660 | 5.99e5 | 1.22e5 | – | 30058 | 3229 | inactive |
| bbc | DRSC06958 | 1.84e5 | 7.71e5 | 1.03e5 | 7744 | 44280 | inactive |
| et | DRSC19582 | 88869 | 2.59e5 | – | 3312 | 11058 | inactive |
| CG17593 | DRSC00504 | 1.37e5 | 75394 | – | 3467 | 7545 | inactive |
| Spn43Ad | DRSC06770 | 93176 | 26823 | – | 2272 | 2451 | inactive |
| CG9360 | DRSC20180 | 51766 | 2.79e5 | – | 1600 | 10973 | inactive |
| Rtca | DRSC18517 | 1.46e5 | 95768 | – | 2930 | 3344 | inactive |
| slf | DRSC00583 | 1.09e5 | 70994 | – | 1824 | 5880 | inactive |
| Srg3 | DRSC08984 | 1.34e5 | 2.69e5 | – | 3764 | 12265 | inactive |
| Srg3 | DRSC10178 | 33968 | 64605 | 62250 | 6653 | 4793 | inactive |
| frm | DRSC09753 | 2.11e5 | 1.33e5 | – | 7898 | 4576 | inactive |
| Gr2a | DRSC18603 | 1.02e5 | 3.25e5 | – | 3763 | 12347 | inactive |
| Arfrp1 | DRSC18417 | 55435 | 67274 | – | 1120 | 1593 | inactive |
| kuz | DRSC03555 | 81848 | 45128 | – | 2103 | 3660 | inactive |
| Mco4 | DRSC20061 | 65959 | 2.28e5 | – | 2359 | 9268 | inactive |
| CG9154 | DRSC03150 | 81499 | 67181 | – | 4278 | 3152 | inactive |
| CG5567 | DRSC10517 | 1.34e5 | 67277 | – | 4971 | 2979 | inactive |
| CG43174 (retired record) + CG43173 (retired record) | DRSC09517 | 2.10e5 | – | – | 4428 | – | inactive |
| CG31077 | DRSC13805 | 52106 | 1.63e5 | – | 14700 | 4876 | inactive |
| disco | DRSC20323 | 60647 | 2.32e5 | – | 870 | 9308 | inactive |
| Spf30 | DRSC11976 | 66572 | 1.11e5 | – | 2224 | 2897 | inactive |
| Topors | DRSC06531 | 1.02e5 | 56426 | – | 4304 | 2473 | inactive |
| CG5116 | DRSC15720 | 4.82e5 | 78434 | – | 1953 | 1953 | inactive |
| MBD-R2 | DRSC14180 | 62328 | 1.13e5 | – | 1104 | 1424 | active |
| Sf3b3 | DRSC08370 | 59242 | 67037 | – | 3751 | 3703 | inactive |
| CG6398 | DRSC19992 | 1.31e5 | 1.25e5 | – | 3068 | 2776 | inactive |
| L2HGDH | DRSC02082 | 97073 | 54904 | – | 3866 | 2150 | inactive |
| CG6508 | DRSC02963 | 1.16e5 | 63876 | – | 2899 | 5368 | inactive |
| CG11147 | DRSC02129 | 74244 | 38438 | – | 2277 | 4316 | inactive |
| RtGEF | DRSC03604 | 90020 | 45990 | – | 2209 | 4274 | inactive |
| Oseg5 | DRSC03209 | 1.32e5 | 66460 | – | 3560 | 6725 | inactive |
| CG2712 | DRSC18589 | 96131 | 1.08e5 | – | 1914 | 3296 | inactive |
| Eig71Ea | DRSC11148 | 1.49e5 | – | – | 5004 | 4041 | inactive |
| PheRS-m | DRSC05915 | 1.31e5 | 91457 | – | 5921 | 3389 | inactive |
| CG31848 | DRSC01309 | 4.38e5 | 2.90e5 | – | 21965 | 10758 | inactive |
| CG18808 | DRSC08539 | 52321 | 53350 | – | 6101 | 4108 | inactive |
| CG1542 | DRSC15035 | 62449 | 37241 | – | 1859 | 1753 | inactive |
| CG14052 | DRSC17907 | 83255 | 2.27e5 | – | 3273 | 10946 | inactive |
| CG14052 | DRSC18192 | 88700 | 2.32e5 | – | 3949 | 10705 | inactive |
| strat | DRSC03069 | 1.48e5 | 82720 | – | 3255 | 5749 | inactive |

10 of these entries in another layout.
predicted target,DRSC id,"firefly Hh reporter signal, replicate 1","firefly Hh reporter signal, replicate 2","firefly Hh reporter signal, replicate 3","Renilla reference signal, replicate 1","Renilla reference signal, replicate 2",Call
CG6310,DRSC10619,38086,47517,78728,4573,5568,inactive
Ada3,DRSC20321,89460,2.91e5,,2096,11696,inactive
Ada3,DRSC20322,79414,1.87e5,,1413,7760,inactive
CG10750,DRSC02105,84112,50464,,4013,2560,inactive
CG15594,DRSC12280,1.08e5,1.21e5,,4001,3488,inactive
Nmd3,DRSC18687,1.53e5,1.01e5,,3536,3515,inactive
CG4332,DRSC19890,93505,57588,,2867,1517,inactive
psidin,DRSC15660,5.99e5,1.22e5,,30058,3229,inactive
bbc,DRSC06958,1.84e5,7.71e5,1.03e5,7744,44280,inactive
et,DRSC19582,88869,2.59e5,,3312,11058,inactive
